Data published in the supplement of paper PMC10849652.
Some of the results follow.

Amino acid sequences for entries named in this document (tags omitted). A change or cut given only in a name is not applied to a line headed by its entry.
UniProt Q9NQZ2: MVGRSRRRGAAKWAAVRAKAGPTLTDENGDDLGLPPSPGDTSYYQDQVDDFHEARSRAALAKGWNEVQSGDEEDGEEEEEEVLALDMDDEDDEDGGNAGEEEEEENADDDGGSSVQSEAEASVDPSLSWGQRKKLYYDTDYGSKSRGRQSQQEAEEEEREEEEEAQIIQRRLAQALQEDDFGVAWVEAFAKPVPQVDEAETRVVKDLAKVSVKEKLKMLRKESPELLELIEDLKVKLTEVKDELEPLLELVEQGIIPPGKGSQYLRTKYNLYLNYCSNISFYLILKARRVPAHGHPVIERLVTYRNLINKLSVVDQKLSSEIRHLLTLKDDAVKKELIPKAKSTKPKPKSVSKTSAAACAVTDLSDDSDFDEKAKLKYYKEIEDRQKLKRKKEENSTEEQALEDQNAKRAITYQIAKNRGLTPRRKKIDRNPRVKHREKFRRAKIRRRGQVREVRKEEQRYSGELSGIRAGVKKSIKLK
UniProt Q92890: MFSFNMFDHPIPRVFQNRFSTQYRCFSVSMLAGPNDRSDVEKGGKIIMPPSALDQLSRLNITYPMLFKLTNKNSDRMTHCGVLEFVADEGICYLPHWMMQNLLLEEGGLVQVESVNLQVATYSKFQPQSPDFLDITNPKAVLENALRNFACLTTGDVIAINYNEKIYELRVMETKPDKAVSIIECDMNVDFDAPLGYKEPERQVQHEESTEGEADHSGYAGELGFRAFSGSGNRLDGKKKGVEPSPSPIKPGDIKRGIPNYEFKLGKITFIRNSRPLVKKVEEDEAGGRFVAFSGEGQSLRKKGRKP
UniProt Q9BZM6: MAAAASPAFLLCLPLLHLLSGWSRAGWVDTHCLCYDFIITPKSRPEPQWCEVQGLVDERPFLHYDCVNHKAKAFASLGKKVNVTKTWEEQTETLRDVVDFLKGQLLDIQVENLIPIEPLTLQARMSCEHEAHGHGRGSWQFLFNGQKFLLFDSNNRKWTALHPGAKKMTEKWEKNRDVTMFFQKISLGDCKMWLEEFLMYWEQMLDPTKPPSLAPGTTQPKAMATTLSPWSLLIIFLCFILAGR
UniProt Q9BZI7: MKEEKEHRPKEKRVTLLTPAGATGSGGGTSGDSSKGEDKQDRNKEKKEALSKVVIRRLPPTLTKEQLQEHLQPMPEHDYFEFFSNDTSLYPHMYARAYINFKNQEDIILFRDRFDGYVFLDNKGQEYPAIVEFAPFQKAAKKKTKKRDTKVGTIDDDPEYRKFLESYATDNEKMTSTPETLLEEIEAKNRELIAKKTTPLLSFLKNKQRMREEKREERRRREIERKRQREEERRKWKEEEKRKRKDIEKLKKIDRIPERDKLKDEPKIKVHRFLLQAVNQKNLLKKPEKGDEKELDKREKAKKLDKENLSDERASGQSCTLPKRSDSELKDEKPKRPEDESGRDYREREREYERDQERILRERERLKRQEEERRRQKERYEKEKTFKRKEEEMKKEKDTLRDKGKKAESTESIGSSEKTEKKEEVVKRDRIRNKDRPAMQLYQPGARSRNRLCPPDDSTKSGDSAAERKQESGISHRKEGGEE
UniProt P10746: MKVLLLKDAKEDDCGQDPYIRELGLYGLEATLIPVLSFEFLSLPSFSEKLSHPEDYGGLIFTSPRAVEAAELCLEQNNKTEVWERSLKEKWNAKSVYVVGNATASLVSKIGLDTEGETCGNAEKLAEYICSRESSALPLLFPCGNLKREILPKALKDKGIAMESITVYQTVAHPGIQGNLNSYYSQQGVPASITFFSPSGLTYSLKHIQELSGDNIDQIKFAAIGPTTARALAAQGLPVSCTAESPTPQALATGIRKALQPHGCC
UniProt P45880: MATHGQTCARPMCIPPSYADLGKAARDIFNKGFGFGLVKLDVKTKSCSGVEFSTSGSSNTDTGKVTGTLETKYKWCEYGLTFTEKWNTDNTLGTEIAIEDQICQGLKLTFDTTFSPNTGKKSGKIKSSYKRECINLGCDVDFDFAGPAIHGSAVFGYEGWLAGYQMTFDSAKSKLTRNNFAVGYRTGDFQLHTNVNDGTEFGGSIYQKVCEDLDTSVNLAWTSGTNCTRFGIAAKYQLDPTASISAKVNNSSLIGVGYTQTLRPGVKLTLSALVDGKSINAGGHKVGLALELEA
UniProt P14927: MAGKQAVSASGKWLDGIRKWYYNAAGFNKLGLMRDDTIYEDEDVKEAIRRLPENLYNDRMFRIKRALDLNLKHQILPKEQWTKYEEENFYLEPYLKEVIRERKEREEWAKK
UniProt A0JNW5: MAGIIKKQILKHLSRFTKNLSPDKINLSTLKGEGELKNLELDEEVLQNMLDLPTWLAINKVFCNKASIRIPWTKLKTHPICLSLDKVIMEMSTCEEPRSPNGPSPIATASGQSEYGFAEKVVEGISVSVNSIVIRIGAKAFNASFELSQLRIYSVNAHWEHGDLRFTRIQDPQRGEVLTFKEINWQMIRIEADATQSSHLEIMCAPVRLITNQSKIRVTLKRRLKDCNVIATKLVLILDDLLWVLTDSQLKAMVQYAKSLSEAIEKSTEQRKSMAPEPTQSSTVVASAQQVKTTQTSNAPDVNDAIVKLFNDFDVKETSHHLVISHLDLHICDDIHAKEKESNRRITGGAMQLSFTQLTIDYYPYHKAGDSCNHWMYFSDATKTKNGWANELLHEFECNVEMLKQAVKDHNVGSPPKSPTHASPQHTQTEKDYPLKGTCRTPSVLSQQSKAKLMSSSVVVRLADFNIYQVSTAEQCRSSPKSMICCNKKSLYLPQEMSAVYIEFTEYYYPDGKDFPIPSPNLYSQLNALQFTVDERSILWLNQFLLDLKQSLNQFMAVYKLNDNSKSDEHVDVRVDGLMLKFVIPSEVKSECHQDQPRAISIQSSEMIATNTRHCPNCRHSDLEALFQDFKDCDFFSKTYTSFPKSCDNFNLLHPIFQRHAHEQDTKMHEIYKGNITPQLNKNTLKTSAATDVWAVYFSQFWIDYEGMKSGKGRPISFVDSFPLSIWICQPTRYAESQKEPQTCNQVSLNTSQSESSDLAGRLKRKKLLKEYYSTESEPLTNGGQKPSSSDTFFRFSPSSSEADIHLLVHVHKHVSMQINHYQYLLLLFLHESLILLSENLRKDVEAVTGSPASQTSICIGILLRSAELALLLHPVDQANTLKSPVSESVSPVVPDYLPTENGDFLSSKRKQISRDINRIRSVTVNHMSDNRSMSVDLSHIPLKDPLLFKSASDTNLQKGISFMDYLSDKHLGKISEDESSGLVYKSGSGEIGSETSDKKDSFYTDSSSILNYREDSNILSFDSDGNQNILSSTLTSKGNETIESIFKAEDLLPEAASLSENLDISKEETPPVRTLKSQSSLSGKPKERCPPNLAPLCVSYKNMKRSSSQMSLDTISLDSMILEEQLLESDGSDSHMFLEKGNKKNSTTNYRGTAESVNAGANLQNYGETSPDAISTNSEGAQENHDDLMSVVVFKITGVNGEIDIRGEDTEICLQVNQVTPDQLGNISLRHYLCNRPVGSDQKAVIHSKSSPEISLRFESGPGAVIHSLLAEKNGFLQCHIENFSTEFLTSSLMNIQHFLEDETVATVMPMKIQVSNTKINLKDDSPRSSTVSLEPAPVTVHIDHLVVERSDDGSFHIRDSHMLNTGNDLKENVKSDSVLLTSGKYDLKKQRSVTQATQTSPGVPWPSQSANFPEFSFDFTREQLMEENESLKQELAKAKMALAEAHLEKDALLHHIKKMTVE
UniProt Q14119: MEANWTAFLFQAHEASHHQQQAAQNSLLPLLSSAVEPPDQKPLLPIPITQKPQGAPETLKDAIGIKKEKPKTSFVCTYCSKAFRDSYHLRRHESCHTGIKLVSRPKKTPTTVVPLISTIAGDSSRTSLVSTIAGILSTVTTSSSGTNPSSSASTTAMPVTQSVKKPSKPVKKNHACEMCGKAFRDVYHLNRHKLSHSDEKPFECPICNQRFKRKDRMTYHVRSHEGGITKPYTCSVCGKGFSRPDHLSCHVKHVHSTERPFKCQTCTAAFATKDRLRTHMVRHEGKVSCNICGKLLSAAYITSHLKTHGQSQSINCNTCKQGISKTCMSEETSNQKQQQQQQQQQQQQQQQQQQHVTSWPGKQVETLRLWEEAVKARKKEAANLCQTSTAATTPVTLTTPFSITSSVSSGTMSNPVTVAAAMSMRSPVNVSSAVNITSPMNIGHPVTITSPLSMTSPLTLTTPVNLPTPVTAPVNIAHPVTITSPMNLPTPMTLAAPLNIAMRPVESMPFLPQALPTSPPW
UniProt Q92995: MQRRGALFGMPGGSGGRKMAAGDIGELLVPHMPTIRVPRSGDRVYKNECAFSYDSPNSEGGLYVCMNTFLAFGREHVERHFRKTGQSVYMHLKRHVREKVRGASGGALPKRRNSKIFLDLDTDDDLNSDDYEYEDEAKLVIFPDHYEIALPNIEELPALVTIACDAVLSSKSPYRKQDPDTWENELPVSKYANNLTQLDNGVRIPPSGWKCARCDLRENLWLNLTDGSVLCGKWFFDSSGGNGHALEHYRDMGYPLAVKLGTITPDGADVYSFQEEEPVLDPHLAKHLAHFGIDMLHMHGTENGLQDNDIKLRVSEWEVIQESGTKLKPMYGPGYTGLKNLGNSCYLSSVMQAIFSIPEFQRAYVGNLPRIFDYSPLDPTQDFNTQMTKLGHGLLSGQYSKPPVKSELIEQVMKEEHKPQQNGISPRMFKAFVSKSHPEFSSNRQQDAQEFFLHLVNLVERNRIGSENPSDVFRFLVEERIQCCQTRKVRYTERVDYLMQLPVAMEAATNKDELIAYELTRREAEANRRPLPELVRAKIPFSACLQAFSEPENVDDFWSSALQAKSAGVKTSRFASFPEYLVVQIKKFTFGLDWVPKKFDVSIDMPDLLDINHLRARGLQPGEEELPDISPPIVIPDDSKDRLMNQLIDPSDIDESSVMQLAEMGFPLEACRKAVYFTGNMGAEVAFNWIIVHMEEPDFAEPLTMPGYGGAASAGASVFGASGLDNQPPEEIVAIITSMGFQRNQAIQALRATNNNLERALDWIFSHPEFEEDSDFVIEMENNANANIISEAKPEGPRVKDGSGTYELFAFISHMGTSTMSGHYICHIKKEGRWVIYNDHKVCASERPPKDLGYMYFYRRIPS
UniProt Q16851: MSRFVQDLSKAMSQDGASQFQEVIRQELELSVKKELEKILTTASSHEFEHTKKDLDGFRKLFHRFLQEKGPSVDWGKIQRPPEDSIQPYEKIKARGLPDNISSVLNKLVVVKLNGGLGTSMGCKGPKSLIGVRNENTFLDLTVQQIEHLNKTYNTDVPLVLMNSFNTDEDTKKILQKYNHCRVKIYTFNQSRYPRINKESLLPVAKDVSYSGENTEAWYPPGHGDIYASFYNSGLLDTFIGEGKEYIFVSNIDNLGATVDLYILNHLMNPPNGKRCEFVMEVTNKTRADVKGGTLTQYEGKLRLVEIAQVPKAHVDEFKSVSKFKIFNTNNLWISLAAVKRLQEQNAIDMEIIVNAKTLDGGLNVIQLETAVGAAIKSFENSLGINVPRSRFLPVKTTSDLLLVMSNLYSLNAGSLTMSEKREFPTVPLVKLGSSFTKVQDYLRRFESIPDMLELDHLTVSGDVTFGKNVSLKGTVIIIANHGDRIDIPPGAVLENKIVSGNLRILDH
UniProt Q9H3U1: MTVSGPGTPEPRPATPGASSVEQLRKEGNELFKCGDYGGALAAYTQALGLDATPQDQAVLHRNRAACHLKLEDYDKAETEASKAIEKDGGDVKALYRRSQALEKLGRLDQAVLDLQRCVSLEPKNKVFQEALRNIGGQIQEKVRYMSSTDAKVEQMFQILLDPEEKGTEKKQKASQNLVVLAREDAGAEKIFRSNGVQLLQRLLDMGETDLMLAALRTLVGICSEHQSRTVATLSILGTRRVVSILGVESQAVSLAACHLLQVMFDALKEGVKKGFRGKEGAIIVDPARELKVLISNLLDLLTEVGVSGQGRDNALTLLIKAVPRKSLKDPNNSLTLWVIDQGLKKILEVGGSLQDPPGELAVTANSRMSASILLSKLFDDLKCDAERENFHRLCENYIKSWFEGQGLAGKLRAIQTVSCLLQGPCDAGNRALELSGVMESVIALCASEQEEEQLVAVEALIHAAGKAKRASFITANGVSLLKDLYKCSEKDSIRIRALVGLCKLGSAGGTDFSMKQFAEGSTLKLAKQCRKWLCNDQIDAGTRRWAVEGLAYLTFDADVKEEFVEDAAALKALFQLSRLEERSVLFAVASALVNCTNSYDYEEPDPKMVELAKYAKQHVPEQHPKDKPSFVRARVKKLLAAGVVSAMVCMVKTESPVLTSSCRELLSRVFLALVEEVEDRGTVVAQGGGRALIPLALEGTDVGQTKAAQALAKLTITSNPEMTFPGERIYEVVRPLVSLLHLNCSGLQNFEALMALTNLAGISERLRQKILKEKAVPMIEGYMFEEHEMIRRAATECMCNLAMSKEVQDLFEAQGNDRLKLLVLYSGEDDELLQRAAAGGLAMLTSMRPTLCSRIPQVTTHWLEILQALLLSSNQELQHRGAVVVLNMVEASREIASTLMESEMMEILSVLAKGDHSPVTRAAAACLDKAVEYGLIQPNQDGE
UniProt P63027, whole entry, looked up: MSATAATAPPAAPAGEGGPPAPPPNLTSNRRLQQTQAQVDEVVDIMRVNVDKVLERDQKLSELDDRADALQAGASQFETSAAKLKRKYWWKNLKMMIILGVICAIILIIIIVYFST

What was measured:
Assay in all cases: log2 fold change, soluble protein after heating vs DMSO (PISA); higher = thermal stabilisation; K562 lysate, 10 uM; active = over 0.2 and 3.5 SD of the protein, either way, in both replicates (recomputed)
[1] = compound: CS(=O)(=O)CCNCc1ccc(-c2ccc3ncnc(Nc4ccc(OCc5cccc(F)c5)c(Cl)c4)c3c2)o1 [lapatinib]
In short: (§1)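 Pellets of K562 cells were dounce-homogenised in PBS pH 7.4 with 1 mM MgCl2, and the crude extract was held at 1 mg/mL protein for a 30 min treatment with 10 μM compound. Aliquots were heated for 3 min over 48°C-58°C and pooled before NP-40 was added to 0.5% at 4°C. The supernatant from 21,000xg for 90 min was quantified by TMTpro 16plex LC-MS/MS with channel sums equalised. Values are reported from duplicates as log-two fold change in thermal stability relative to solvent controls.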

[2] = compound: CS(=O)(=O)N1CCN(Cc2cc3nc(-c4cccc5[nH]ncc45)nc(N4CCOCC4)c3s2)CC1 [pictilisib]
In short: as §1

[3] = compound: C[C@@H](Oc1cc(-c2cnn(C3CCNCC3)c2)cnc1N)c1c(Cl)ccc(F)c1Cl [crizotinib]
In short: as §1

[4] = compound: C[C@H](C1=CC=C(C=C1)C(=O)NC2=C3C=CNC3=NC=C2)N
In short: as §1

[5] = compound: C[C@H](Nc1ncnc2nc[nH]c12)c1cc2cccc(Cl)c2c(=O)n1-c1ccccc1 [duvelisib]
In short: as §1

[6] = compound: Cc1cc(Nc2cc(CN3CCOCC3)c3nc(C)c(Cc4ccc(Cl)cc4F)n3n2)n[nH]1 [gandotinib]
In short: as §1

[7] = compound: Cc1cc(Nc2cc(N3CCN(C)CC3)nc(Sc3ccc(NC(=O)C4CC4)cc3)n2)n[nH]1 [tozasertib]
In short: as §1

[8] = compound: Cc1ccc(-n2nc(C(C)(C)C)cc2NC(=O)Nc2ccc(OCCN3CCOCC3)c3ccccc23)cc1 [doramapimod]
In short: as §1

[9] = compound: Cc1ccc(NC(=O)c2ccc(CN3CC[C@H](N(C)C)C3)c(C(F)(F)F)c2)cc1Nc1nccc(-c2cncnc2)n1 [bafetinib]
In short: as §1

[10] = compound: Cc1cccc(CC(=O)N2CCc3c2ccc(-c2cn(C)c4ncnc(N)c24)c3F)n1
In short: as §1

[11] = compound: Cc1cn(-c2cc(NC(=O)c3ccc(C)c(Nc4nccc(-c5cccnc5)n4)c3)cc(C(F)(F)F)c2)cn1 [nilotinib]
In short: as §1

[12] = compound: Cc1nc(Nc2n[nH]c3c2CN(C(=O)N[C@H](CN(C)C)c2ccccc2)C3(C)C)c2sccc2n1
In short: as §1

[13] = compound: Cc1nc(Nc2ncc(C(=O)Nc3c(C)cccc3Cl)s2)cc(N2CCN(CCO)CC2)n1 [dasatinib]
In short: as §1

[14] = compound: Cc1ncc(-c2ccnc(Nc3ccc(S(C)(=O)=O)cc3)n2)n1C(C)C
In short: as §1

[15] = compound: Cn1cc(-c2ccc3c(c2)CCN3C(=O)Cc2cccc(C(F)(F)F)c2)c2c(N)ncnc21
In short: as §1

[16] = compound: Cn1cc(CNCC2CCN(c3ncc(C(=O)NO)cn3)CC2)c2ccccc21 [quisinostat]
In short: as §1

[17] = compound: Cn1cncc1[C@@](N)(c1ccc(Cl)cc1)c1ccc2c(c1)c(-c1cccc(Cl)c1)cc(=O)n2C [tipifarnib]
In short: as §1

[18] = compound: NC(=O)Nc1cc(-c2cccc(F)c2)sc1C(=O)N[C@H]1CCCNC1
In short: as §1

[19] = compound: NC(=O)c1cnc(N[C@@H]2CCCC[C@@H]2N)nc1Nc1cccc(-n2nccn2)c1
In short: as §1

[20] = compound: NC1(c2ccc(-c3nc4ccn5c(=O)[nH]nc5c4cc3-c3ccccc3)cc2)CCC1
In short: as §1

Measured: log2 fold change

UTP3 (UniProt Q9NQZ2)
inactive: [1] 0.002 | [2] -0.031 | [3] -0.094 | [4] -0.008 | [5] 0.031 | [6] -0.007 | [7] -0.027 | [8] 0.066 | [9] -0.061 | [10] 0.029 | [11] -0.106 | [12] 0.008 | [13] -0.048 | [14] -0.054 | [15] -0.023 | [16] 0.014 | [17] 0.051 | [18] 0.065 | [19] 0.002 | [20] 0

UFD1 isoform 1 (UniProt Q92890)
inactive: [1] 0.011 | [2] -0.011 | [3] 0.005 | [4] -0.031 | [5] 0.019 | [6] 0.061 | [7] 0.028 | [8] 0.041 | [9] 0.068 | [10] -0.021 | [11] 0.042 | [12] -0.019 | [13] 0.017 | [14] -0.013 | [15] 0.025 | [16] 0.032 | [17] -0.013 | [18] -0.022 | [19] -0.008 | [20] -0.036

ULBP1 (UniProt Q9BZM6)
inactive: [1] 0.039 | [2] -0.026 | [3] -0.037 | [4] -0.168 | [5] -0.021 | [6] 0.049 | [7] 0.008 | [8] 0.057 | [9] -0.034 | [10] 0.097 | [11] -0.037 | [12] -0.018 | [13] 0.027 | [14] 0.052 | [15] 0.038 | [16] -0.089 | [17] 0.103 | [18] 0.004 | [19] -0.106 | [20] -0.015

UFL1 (UniProt O94874)
inactive: [1] -0.044 | [2] -0.035 | [3] -0.028 | [4] 0.025 | [5] -0.004 | [6] -0.139 | [7] 0.016 | [8] 0.007 | [9] -0.046 | [10] 0.016 | [11] 0.017 | [12] 0.008 | [13] -0.048 | [14] 0.033 | [15] 0.035 | [16] 0.014 | [17] -0.007 | [18] 0.015 | [19] -0.027 | [20] -0.014

Pulled one by one from the entries so far (two):
ULBP1 (UniProt Q9BZM6)
inactive: [1] 0.039 | [2] -0.026 | [3] -0.037 | [4] -0.168 | [5] -0.021 | [6] 0.049 | [7] 0.008 | [8] 0.057 | [9] -0.034 | [10] 0.097 | [11] -0.037 | [12] -0.018 | [13] 0.027 | [14] 0.052 | [15] 0.038 | [16] -0.089 | [17] 0.103 | [18] 0.004 | [19] -0.106 | [20] -0.015

UFL1 (UniProt O94874)
inactive: [1] -0.044 | [2] -0.035 | [3] -0.028 | [4] 0.025 | [5] -0.004 | [6] -0.139 | [7] 0.016 | [8] 0.007 | [9] -0.046 | [10] 0.016 | [11] 0.017 | [12] 0.008 | [13] -0.048 | [14] 0.033 | [15] 0.035 | [16] 0.014 | [17] -0.007 | [18] 0.015 | [19] -0.027 | [20] -0.014

More results follow:

UPF3B (UniProt Q9BZI7)
inactive: [1] 0.005 | [2] 0.021 | [3] 0.007 | [4] -0.171 | [5] 0.016 | [6] 0.037 | [7] 0.031 | [8] 0.003 | [9] -0.012 | [10] 0.067 | [11] -0.016 | [12] 0.012 | [13] 0.004 | [14] 0.014 | [15] 0.005 | [16] -0.013 | [17] 0.014 | [18] 0.022 | [19] -0.025 | [20] -0.003

UNC93B1 (UniProt Q9H1C4)
inactive: [1] -0.051 | [2] 0.064 | [3] 0.029 | [4] -0.121 | [5] -0.09 | [6] 0.039 | [7] 0.106 | [8] -0.132 | [9] -0.028 | [10] 0.226 | [11] 0.022 | [12] 0.046 | [13] 0.059 | [14] -0.127 | [15] -0.052 | [16] 0 | [17] 0.151 | [18] 0.023 | [19] 0.166 | [20] 0.04

UROS (UniProt P10746)
inactive: [1] 0.013 | [2] -0.025 | [3] -0.033 | [4] 0.09 | [5] 0.013 | [6] -0.034 | [7] -0.008 | [8] 0.008 | [9] -0.07 | [10] 0.06 | [11] -0.022 | [12] 0.033 | [13] 0.005 | [14] 0.01 | [15] 0.036 | [16] 0.061 | [17] 0.051 | [18] 0.001 | [19] 0.003 | [20] -0.016

VDAC2 isoform 2 (UniProt P45880)
inactive: [1] -0.009 | [2] -0.016 | [3] -0.006 | [4] -0.034 | [5] 0.01 | [6] 0.023 | [7] 0.001 | [8] -0.003 | [9] 0.01 | [10] -0.022 | [11] 0.024 | [12] -0.007 | [13] -0.013 | [14] 0.03 | [15] -0.008 | [16] 0.006 | [17] 0.01 | [18] -0.009 | [19] 0 | [20] 0.021

UQCRB (UniProt P14927)
inactive: [1] 0.009 | [2] -0.071 | [3] -0.003 | [4] -0.028 | [5] 0.005 | [6] -0.221 | [7] 0.038 | [8] 0.022 | [9] 0.008 | [10] 0.024 | [11] 0.004 | [12] -0.006 | [13] 0.019 | [14] -0.006 | [15] -0.038 | [16] -0.033 | [17] -0.013 | [18] 0.011 | [19] 0.021 | [20] 0.013

UHRF1BP1L (UniProt A0JNW5)
inactive: [1] -0.034 | [2] -0.019 | [3] -0.013 | [4] 0.002 | [5] -0.014 | [6] 0.032 | [7] 0.017 | [8] -0.001 | [9] -0.014 | [10] 0.017 | [11] 0.015 | [12] -0.043 | [13] 0.006 | [14] 0.039 | [15] 0.004 | [16] -0.037 | [17] -0.027 | [18] -0.001 | [19] 0.003 | [20] 0.003

UIMC1 (UniProt Q96RL1)
inactive: [1] 0.013 | [2] 0.002 | [3] -0.003 | [4] 0.027 | [5] 0.034 | [6] 0.034 | [7] -0.018 | [8] -0.004 | [9] -0.041 | [10] -0.032 | [11] -0.004 | [12] -0.021 | [13] -0.002 | [14] -0.072 | [15] -0.022 | [16] 0.012 | [17] 0.071 | [18] -0.012 | [19] -0.017 | [20] 0.002

VEZF1 (UniProt Q14119)
inactive: [1] 0 | [2] 0.02 | [3] -0.138 | [4] -0.246 | [5] 0.113 | [6] 0.188 | [7] 0.042 | [8] 0.311 | [9] 0.021 | [10] -0.044 | [11] 0.018 | [12] -0.124 | [13] 0.033 | [14] -0.027 | [15] 0.039 | [16] -0.346 | [17] -0.043 | [18] 0.009 | [19] 0.012 | [20] 0.102

USP13 (UniProt Q92995)
inactive: [1] 0.033 | [2] -0.067 | [3] 0.013 | [4] -0.064 | [5] -0.009 | [6] 0.029 | [7] -0.031 | [8] -0.044 | [9] -0.084 | [10] 0.075 | [11] 0.017 | [12] 0.051 | [13] 0.023 | [14] 0.054 | [15] -0.01 | [16] 0.017 | [17] 0.056 | [18] -0.027 | [19] -0.095 | [20] -0.011

UGP2 (UniProt Q16851)
inactive: [1] -0.021 | [2] -0.002 | [3] -0.001 | [4] 0.004 | [5] -0.011 | [6] -0.009 | [7] -0.028 | [8] -0.027 | [9] -0.015 | [10] -0.014 | [11] 0.008 | [12] -0.01 | [13] -0.015 | [14] -0.009 | [15] 0.001 | [16] 0.024 | [17] 0.012 | [18] -0.001 | [19] 0.003 | [20] -0.003

UNC45A (UniProt Q9H3U1)
inactive: [1] -0.006 | [2] -0.026 | [3] -0.045 | [4] 0.019 | [5] -0.003 | [6] -0.111 | [7] 0 | [8] 0.027 | [9] -0.018 | [10] 0.021 | [11] -0.007 | [12] 0.003 | [13] -0.051 | [14] 0.018 | [15] 0.016 | [16] -0.047 | [17] -0.015 | [18] 0.03 | [19] 0.016 | [20] -0.001

VAMP2 (UniProt P63027)
inactive: [1] 0.045 | [2] -0.05 | [3] 0.105 | [4] 0.062 | [5] 0.051 | [6] -0.057 | [7] 0.074 | [8] -0.083 | [9] -0.002 | [10] -0.147 | [11] -0.034 | [12] 0.034 | [13] 0.002 | [14] 0.066 | [15] -0.009 | [16] 0.262 | [17] 0.041 | [18] -0.027 | [19] 0.019 | [20] 0.067
